Hit rate of the full screen: of about 52,000 sequences, about 210 (0.4%) were called active.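 The calls were made as follows: active = gene whose silencing raises cell survival under the drug, median off-target-corrected z-score across its silencing RNAs 2 or more; inactive = the rest.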 The list shows a part of the results.

The nature of this assay: Resistance to Poly (ADP-Ribose) Polymerase inhibitor: Gene Identification via Genome-wide siRNA Screen. As to conditions: mouse BRCA2 R2336H ES cells, olaparib, CellTiter-Glo viability; stronger effect = higher value. The procedure, abridged:
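Genome-wide siRNA screen (3 siRNAs/gene, 20 nM) in mouse ES cells carrying hypomorphic BRCA2 R2336H; olaparib 500 nM added 48 h post-transfection, CellTiter-Glo viability 72 h later. Normalized to plate-median negative control; MAD z-scores, gene median, seed-adjusted.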
(In general: Cellular ATP, detected with luciferase, serves as a proxy for viable cell number.)
Consider GGAGGUACCACGAAUCCUUTT against Gm609, for which the z-score is inactive: 2.06.
Take GGAAAUGAAGAAAAGUGACTT against Stk32a: the z-score was inactive: -0.395.
As to “CGUAUAUGUAUGCUACAUATT against 1500001H12Rik”, the z-score was inactive: -0.483.
For GGAAAUCAGAGCUGAGUUATT against Ankrd6, the z-score was inactive: 1.89.
Regarding “GGGAGGUUAAAAUUGGCUATT against 6030405A18”, the z-score is inactive: -0.149.
Take GGAUACUGUAAGGAAUAAUTT against Orc4l: the z-score was inactive: -1.28.
In the case of “GGUGUCAGUAUUUCCUUCATT against C530005A01Rik”, the z-score is inactive: 0.051.
To CGAUCUACAAGGACACCGATT against Taf1c belongs inactive: 0.113.
Turning to GAAGCUUGUAGUGACUGCCTT against V1rc22, the z-score was inactive: 1.22.
GGAAAAAGAGAAUUCGAUATT against Wee1: the z-score was inactive: -2.54.
As to GGUUUGUCUCCAUUCUUAUTT against Pnp, the z-score is inactive: -0.113.
Turning to “GCUAUGAGGCUUUGUUCUUTT against 2610511O17Rik”, the z-score is inactive: -0.565.
In the case of GGCUGUCAUCCAAGAACUUTT against Mtcp1, the z-score is inactive: -2.17.
Turning to GGAAAUCCAACAGCAGAUCTT against Rnf167, the z-score was inactive: -0.233.
Take “GCGACUUGUCCUAUUUCGATT against 4732435N03Rik”: the z-score was inactive: 0.068.
Consider GGAUCCUGCAUAUCUCAAATT against Mrps18c, for which the z-score was inactive: 0.201.
The value for GGGCCUUUUUGAGUACGACTT against Cryaa was inactive: 1.67.
On to GGCAUUAAAGUACAGCAUGTT against Immt, for which the z-score is inactive: 0.561.
As to GGUCUUGGCUGAUUUUAUGTT against Cyp24a1, the z-score was inactive: 0.657.
With CCAAGCUUAUUGACAAUGATT against Spna1, the z-score is inactive: -0.376.
As for GGGCUUUCCCAGUUCCUAATT against Bmp6, the z-score was inactive: 1.82.
On to GCUGGAAACCCGUAUACUATT against Krt1-23, for which the z-score was inactive: -0.209.
Take “GCAGUAUUGAUAAAAGUACTT against D430039N05Rik”: the z-score was inactive: -0.343.
To GGACACCACGUUCACCAAGTT against Rnpc1 belongs inactive: 0.22; to GGAUUUGGCUAUAAGGGUUTT against Ppia, inactive: -1.06; to GCAGUUUGGGAGCCCAAUATT against Slc16a13, inactive: -1.93.
To GGUUCUUACAGCUAUAGAATT against Spo11 belongs inactive: 1.51; to GGAUCAACUUUGACAAAUATT against Rpl27a, inactive: -3.15; to GCGAGAGCUUCUGUGAAAATT against Rnase13, inactive: -1.22.
Turning to “GCGCGUACAUCUUGUCUCATT against 1110014F12Rik”, the z-score is inactive: -0.524.
To GGAUAUAUACCUAUUCUGATT against Wdr50 belongs inactive: -0.432; to GGCCAGUCGGAAAAUCUUATT against Atp7b, inactive: 0.851.
Regarding GGCCUUCACGUCUGGAAAUTT against Cnot10, the z-score was inactive: -1.26.
To GGAAGUCCUGCCAUUUAUATT against Ranbp2 belongs inactive: -2.76; to GGAAAAUGAGAUCAUGCCCTT against Sdf4, inactive: 0.0489.
On to GCCAGUAUGCUGUAUGGCUTT against Bcas3, for which the z-score was inactive: 0.521.
GGACUUUGUUGUAAAGCACTT against Asgr2: the z-score was inactive: 1.7.
Regarding “GGAACCCAAGUGCUUAGAATT against 2410016O06Rik”, the z-score is inactive: -0.532.
For the sequence GCGGGUAUGAUGGUACCUUTT against Pomt2, the z-score was inactive: -0.217.
Regarding GGUCAAAGAUGCUAUAAAATT against Olfr993, the z-score was inactive: 1.04.
Consider GGAUCUACGUAGCAUUUCATT against Misc12, for which the z-score is inactive: -0.912.
CCCAGAAAUUUCAACUACATT against Clm3: the z-score is inactive: 1.
For the sequence “GGAUCCUGACAACCCUGUGTT against 3110056O03Rik”, the z-score is inactive: 0.833.
The value for GGUCAGAAUCUUUGUUCCUTT against Ndufs4 was inactive: -1.12; that for GGGUGAAAUCUAUCUCCAUTT against Hrb was inactive: -1.73.
To CCCGUUGCUUUAGAGCUCUTT against Dph2l2 belongs inactive: 1.68.
GGUUUUACCGAUGAUGCAUTT against Pcdhb20: the z-score is inactive: -1.1.
The value for GGACAUUUUGAACUGUUAUTT against BC046386 was inactive: 0.0833; that for GGUAGAUGCUUUGAGCUUCTT against Enpp2 was inactive: 0.503; that for GGAGAGUAUGUACUCACAUTT against Lnk was inactive: -0.255.
As for “GGGACUUUGGGCUAAAUAGTT against 9030418M05Rik”, the z-score was inactive: -2.
Take GCUAUUCGUCAAUGCUGACTT against Abcf1: the z-score was inactive: -0.879.
For “CCUCUCAUUGGGAUGUUACTT against 4933425K02Rik”, the z-score was inactive: -2.8.
Consider GGAGACAUAUGAGACUCUGTT against Fcer1g, for which the z-score was inactive: -0.333.
Take GGAAACCUUCAGGUUCUGATT against Cdon: the z-score is inactive: -1.81.
Take CGUAGGACUGAAUCAGCUUTT against Slc13a3: the z-score was inactive: -0.339.
To GUUGUGCCUCCCUCAAUCATT against Ndufa7 belongs inactive: -0.189; to GGCGAAUGUUUACGAGAACTT against Sh2d1c, inactive: 1.22.
Turning to GACCACAGAUGACAUGGUGTT against Il12a, the z-score is inactive: 0.404.
As to CGGAAUCAAGGACCGAGUUTT against Ndufab1, the z-score is inactive: -0.9.
In the case of GCCAAGAAAAUCAAGUCUCTT against Pknox2, the z-score was inactive: 0.0675.
For the sequence GGCAAAUCCCGUUCACUGATT against Magel2, the z-score is inactive: 0.062.
For the sequence GGUCCAACGAUAUGUUGACTT against LOC545288, the z-score is inactive: 0.51.
For GCGGAACUGACUUUCCUGATT against Rhot2, the z-score was inactive: -0.192.
In the case of CCAACUCCUGGAAGAUGCATT against Olfr1314, the z-score is inactive: -0.758.
Turning to CCUUGUGGUUUUCGUAACGTT against Mrgprb1, the z-score was inactive: 1.22.
As for “CCACAAAUGCUUCAAGCUATT against 0610030I09Rik”, the z-score is inactive: 0.339.

For the origin of these results see PubChem BioAssay AID1347423 (Functional Genomics Laboratory (NCATS/FGL), 2020).
